From patent US20170182119A1
No constants are given. Whether binding was seen depends on the method and setting. Some entries that bind do so weakly or less than the wild type. Where a sequence is shown, tags or fusion partners need not be part of it.

Protein sequences, listed by entry. Tags and fused reporters are not part of them. Lines headed by an entry give the natural chain unless they say otherwise; changes in a name come on top.
UniProt Q8MIP0: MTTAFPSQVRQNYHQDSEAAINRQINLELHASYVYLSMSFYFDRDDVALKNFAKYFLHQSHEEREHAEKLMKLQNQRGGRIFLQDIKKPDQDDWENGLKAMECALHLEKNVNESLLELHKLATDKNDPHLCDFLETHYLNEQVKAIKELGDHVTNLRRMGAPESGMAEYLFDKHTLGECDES
UniProt P02791: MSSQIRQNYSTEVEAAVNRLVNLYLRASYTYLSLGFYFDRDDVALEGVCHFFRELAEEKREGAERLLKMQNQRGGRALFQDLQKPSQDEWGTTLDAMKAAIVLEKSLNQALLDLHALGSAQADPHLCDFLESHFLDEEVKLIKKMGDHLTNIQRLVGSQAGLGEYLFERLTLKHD

Biological target: ferritin purified from horse spleen (mixture of FTH1 and FTL subunits) (horse) (UniProt Q8MIP0+P02791)
Experiment: GST pull-down of ferritin with bead-bound GST-NCOA4 fragments, FTH1 immunoblot

Binder: SFQVIKNSPLSEWLIRPPYKEGSPK (peptide, not shown: a dimerising Fc or GST) [GST-NCOA4 aa 485-509]
- binding: binds
